Laboratory results as given in US20050267016A1, “CD-10 activated prodrug compounds” (priority 2001, published 2005).
At least one peptide structure holds a part that was inferred or is arguable (an end, a ring closure or a residue).

Tests used:
[1] = system: LNCaP (prostate carcinoma) cells; conditions: ratio of IC50
Experimental: (§1) Adherent cells, LNCaP (prostate carcinoma), HT-29 (colon carcinoma) and PC-3 (prostate carcinoma), were cultured in DMEM media containing 10% heat inactivated fetal calf serum (FCS). On the day of the study the cells were detached from the plate with a trypsin solution. The collected cells were washed and resuspended at a concentration of 0.25×10^6 cells/ml in DMEM containing 10% FCS. 100 μl of cell suspension were added to 96 well plates and the plates were incubated for 3 hours to allow the cells to adhere. […] The plates were then incubated for 24 hours, pulsed with 10 μl of a 100 μCi/ml ^3H-thymidine and incubated for an additional 24 hours (total incubation time 48 hours). The plates were harvested using a 96 well Harvester (Packard Instruments) and counted on a Packard Top Count Counter. Four parameter logistic curves were fitted to the ^3H-thymidine incorporation as a function of drug molarity using Prism software to determine IC50 values.
as §1, with “carcinoma), PC-3 (prostate” for “carcinoma), HT-29 (colon”, “and 22 RV1” for “and PC-3”, “with 1:0” for “with 10”
The effect of two known inhibitors of CD10 on prodrug activity in Ramos, LNCaP and Ball-1 cells was evaluated. The IC50 of Suc-βAla-Ile-Ala-Leu-Dox was determined in the presence of increasing concentration of the CD10 inhibitors, phosphoramidon and thiorphan.

Porcine Kidney CD10 = assay: Hydrolysis by purified CD10; type: biochemical
Experimental: Reaction products were analyzed by HPLC with fluorescence detection. Rates were essentially linear over the incubation period. The observed product was Leu-doxorubicin.

Structure (SMILES): CC[C@H](C)[C@H](NC(=O)CCC(=O)O)C(=O)N(C)[C@@H](C)C(=O)N[C@@H](CC(C)C)C(=O)N[C@H]1C[C@H](O[C@H]2C[C@](O)(C(=O)CO)Cc3c(O)c4c(c(O)c32)C(=O)c2c(OC)cccc2C4=O)O[C@@H](C)[C@H]1O [Suc-Ile-NMeAla-Leu-Dox]
- Ratio PC-3:LNCaP [1]: 129

Structure (SMILES): CC[C@H](C)[C@H](NC(=O)CCC(=O)O)C(=O)N1CCC[C@H]1C(=O)N[C@@H](CC(C)C)C(=O)N[C@H]1C[C@H](O[C@H]2C[C@](O)(C(=O)CO)Cc3c(O)c4c(c(O)c32)C(=O)c2c(OC)cccc2C4=O)O[C@@H](C)[C@H]1O [Suc-Ile-Pro-Leu-Dox]
- Ratio PC-3:LNCaP [1]: 53

Structure (SMILES): COc1cccc2c1C(=O)c1c(O)c3c(c(O)c1C2=O)C[C@@](O)(C(=O)CO)C[C@@H]3O[C@H]1C[C@H](NC(=O)[C@H](CC(C)C)NC(=O)[C@H](C)N(C)C(=O)[C@H](CC(C)C)NC(=O)CCC(=O)O)[C@H](O)[C@H](C)O1 [Suc-Leu-NMeAla-Leu-Dox]
- Ratio PC-3:LNCaP [1]: 37

Structure (SMILES): COc1cccc2c1C(=O)c1c(O)c3c(c(O)c1C2=O)C[C@@](O)(C(=O)CO)C[C@@H]3O[C@H]1C[C@H](NC(=O)CNC(=O)[C@H](Cc2ccc(O)cc2)NC(=O)[C@H](CC(C)C)NC(=O)CCC(=O)O)[C@H](O)[C@H](C)O1 [Suc-Leu-Tyr-Gly-Dox]
- Ratio PC-3:LNCaP [1]: 4

Structure (SMILES): COc1cccc2c1C(=O)c1c(O)c3c(c(O)c1C2=O)C[C@@](O)(C(=O)CO)C[C@@H]3O[C@H]1C[C@H](NC(=O)[C@H](CC(C)C)NC(=O)[C@H](Cc2ccc(O)cc2)NC(=O)[C@H](CC(C)C)NC(=O)CCNC(=O)CCC(=O)O)[C@H](O)[C@H](C)O1 [Suc-βAla-Leu-Tyr-Leu-Dox]
- % hydrolysis/10 hr (Porcine Kidney CD10; 12.5 μg/mL, 37° C., pH 7.4, product Leu-doxorubicin): 0 % hydrolysis/10 hr
- Fraction hydrolyzed relative to standard (Porcine Kidney CD10; standard Suc-βAla-Leu-Ala-Leu-Dox): 0
- Ratio PC-3:LNCaP [1]: 3
